Reference: PMC2909917, “Dynamic Subunit Exchange and the Regulation of Microtubule Assembly by the Stress Response Protein Human αB Crystallin” (PLoS ONE, 2010)
These are yes or no findings as the source states them, for the method shown. Binding can be weak; no strength is given.

Biological target: bovine brain tubulin (bovine)
Assay: SEC; 128 µM αB crystallin and 16 µM tubulin in 20 mM tris-HCl, 160 µM MgCl2, 40 µM EGTA, pH 8.0; heated at 37°C for 30 minutes, cooled at 4°C for 10 minutes; Biosep SEC-S4000, eluted in 20 mM tris-Cl pH 8.0 at 4°C; peak fractions on SDS-PAGE (Coomassie); no GTP or glycerol (non-assembly conditions); both purified

B1: human αB crystallin (natural protein, UniProt P02511 1-175, looked up)
chain: MDIAIHHPWIRRPFFPFHSPSRLFDQFFGEHLLESDLFPTSTSLSPFYLRPPSFLRAPSWFDTGLSEMRLEKDRFSVNLDVKHFSPEELKVKVLGDVIEVHGKHEERQDEHGFISREFHRKYRIPADVDPLTITSSLSSDGVLTVNGPRKQVSGPERTIPITREEKPAVTAAPKK
notes: human αB crystallin, expressed from a human αB crystallin pET16b plasmid; 20 kDa on SDS-PAGE; Polydisperse complex; pET16b can add an N-terminal His tag, but purification was by anion exchange and SEC, so the protein is probably untagged (surmise); also called small heat shock protein (sHSP); source: E. coli BL21 (DE3), purified (Q Sepharose Fast Flow, Superdex 200); copies: 24
In the case of B1, the binding is reported as “binds”.
